Assay results from the supplement of paper PMC10849652.
The list shows a part of the results.

Amino acid sequences for entries named in this document (tags omitted). A change or cut given only in a name is not applied to a line headed by its entry.
UniProt Q9Y4W2: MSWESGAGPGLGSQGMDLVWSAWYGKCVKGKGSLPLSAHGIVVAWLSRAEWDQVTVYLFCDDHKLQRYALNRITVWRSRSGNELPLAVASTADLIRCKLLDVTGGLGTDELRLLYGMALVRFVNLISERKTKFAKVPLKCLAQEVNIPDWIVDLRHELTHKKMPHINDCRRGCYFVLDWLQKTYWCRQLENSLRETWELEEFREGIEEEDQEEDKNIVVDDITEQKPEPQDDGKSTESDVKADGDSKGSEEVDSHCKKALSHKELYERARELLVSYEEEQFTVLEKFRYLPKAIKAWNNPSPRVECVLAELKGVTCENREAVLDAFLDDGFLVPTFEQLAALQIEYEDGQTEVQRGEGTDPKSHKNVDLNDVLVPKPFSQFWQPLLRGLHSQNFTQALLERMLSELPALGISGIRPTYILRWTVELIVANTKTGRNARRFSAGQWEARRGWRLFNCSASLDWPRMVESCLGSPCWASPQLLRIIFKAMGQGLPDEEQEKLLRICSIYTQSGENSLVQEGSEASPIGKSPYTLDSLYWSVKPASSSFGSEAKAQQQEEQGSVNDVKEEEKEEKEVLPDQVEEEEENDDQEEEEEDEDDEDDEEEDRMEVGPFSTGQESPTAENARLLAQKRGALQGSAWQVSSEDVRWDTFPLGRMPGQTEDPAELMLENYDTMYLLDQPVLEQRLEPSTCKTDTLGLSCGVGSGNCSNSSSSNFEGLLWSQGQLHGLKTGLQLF
UniProt P61968: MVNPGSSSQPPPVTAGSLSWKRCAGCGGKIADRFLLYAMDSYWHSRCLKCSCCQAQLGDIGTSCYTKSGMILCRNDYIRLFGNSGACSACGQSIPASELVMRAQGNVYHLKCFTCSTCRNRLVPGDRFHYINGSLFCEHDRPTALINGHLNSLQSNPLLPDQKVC
UniProt Q9GZZ8: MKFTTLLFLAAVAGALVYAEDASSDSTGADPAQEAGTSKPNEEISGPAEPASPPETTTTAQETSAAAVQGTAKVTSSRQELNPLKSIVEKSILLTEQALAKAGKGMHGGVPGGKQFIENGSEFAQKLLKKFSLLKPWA
UniProt P49916: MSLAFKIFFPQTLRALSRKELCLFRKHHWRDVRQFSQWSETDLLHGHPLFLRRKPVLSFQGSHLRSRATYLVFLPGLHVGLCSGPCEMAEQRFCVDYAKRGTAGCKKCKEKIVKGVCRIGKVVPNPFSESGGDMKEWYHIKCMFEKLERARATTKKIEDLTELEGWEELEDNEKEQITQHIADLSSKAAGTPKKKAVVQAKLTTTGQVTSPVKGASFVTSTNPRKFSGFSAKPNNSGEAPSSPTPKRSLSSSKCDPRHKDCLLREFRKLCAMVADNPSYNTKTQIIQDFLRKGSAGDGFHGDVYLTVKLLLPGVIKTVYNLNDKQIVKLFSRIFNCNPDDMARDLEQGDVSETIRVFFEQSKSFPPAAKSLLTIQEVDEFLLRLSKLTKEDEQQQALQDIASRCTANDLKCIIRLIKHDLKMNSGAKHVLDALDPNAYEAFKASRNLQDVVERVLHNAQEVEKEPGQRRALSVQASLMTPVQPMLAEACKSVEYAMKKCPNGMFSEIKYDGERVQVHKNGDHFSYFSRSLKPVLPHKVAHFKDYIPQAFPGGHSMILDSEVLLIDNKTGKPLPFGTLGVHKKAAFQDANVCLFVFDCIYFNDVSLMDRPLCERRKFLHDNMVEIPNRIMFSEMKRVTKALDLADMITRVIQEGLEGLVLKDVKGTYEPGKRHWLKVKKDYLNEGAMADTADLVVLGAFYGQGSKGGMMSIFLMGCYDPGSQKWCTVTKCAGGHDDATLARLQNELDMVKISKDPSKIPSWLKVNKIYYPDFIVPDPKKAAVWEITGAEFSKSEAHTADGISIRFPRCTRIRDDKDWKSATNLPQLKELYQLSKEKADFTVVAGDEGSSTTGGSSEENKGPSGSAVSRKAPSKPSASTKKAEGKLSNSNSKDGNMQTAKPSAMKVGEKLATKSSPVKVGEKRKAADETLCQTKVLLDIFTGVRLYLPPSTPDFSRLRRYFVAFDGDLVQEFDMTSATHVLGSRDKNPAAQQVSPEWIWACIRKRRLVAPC
UniProt O00214: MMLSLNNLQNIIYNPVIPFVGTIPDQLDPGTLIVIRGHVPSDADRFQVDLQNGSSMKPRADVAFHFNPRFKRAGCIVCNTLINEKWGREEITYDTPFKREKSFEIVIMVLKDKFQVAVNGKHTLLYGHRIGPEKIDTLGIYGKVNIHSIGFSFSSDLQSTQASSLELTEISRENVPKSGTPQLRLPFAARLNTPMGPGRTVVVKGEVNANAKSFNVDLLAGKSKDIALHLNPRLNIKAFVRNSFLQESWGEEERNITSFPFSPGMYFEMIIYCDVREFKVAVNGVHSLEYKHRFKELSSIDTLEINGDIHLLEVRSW
UniProt Q6P5S2: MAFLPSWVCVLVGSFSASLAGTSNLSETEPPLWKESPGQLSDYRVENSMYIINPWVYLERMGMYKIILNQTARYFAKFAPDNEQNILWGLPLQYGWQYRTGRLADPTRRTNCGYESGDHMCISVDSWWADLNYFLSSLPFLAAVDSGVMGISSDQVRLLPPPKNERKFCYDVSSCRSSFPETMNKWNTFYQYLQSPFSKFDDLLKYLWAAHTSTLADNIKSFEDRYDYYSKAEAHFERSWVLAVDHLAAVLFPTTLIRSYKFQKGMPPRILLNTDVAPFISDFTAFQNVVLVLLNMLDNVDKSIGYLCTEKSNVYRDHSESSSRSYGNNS
UniProt E9PP15: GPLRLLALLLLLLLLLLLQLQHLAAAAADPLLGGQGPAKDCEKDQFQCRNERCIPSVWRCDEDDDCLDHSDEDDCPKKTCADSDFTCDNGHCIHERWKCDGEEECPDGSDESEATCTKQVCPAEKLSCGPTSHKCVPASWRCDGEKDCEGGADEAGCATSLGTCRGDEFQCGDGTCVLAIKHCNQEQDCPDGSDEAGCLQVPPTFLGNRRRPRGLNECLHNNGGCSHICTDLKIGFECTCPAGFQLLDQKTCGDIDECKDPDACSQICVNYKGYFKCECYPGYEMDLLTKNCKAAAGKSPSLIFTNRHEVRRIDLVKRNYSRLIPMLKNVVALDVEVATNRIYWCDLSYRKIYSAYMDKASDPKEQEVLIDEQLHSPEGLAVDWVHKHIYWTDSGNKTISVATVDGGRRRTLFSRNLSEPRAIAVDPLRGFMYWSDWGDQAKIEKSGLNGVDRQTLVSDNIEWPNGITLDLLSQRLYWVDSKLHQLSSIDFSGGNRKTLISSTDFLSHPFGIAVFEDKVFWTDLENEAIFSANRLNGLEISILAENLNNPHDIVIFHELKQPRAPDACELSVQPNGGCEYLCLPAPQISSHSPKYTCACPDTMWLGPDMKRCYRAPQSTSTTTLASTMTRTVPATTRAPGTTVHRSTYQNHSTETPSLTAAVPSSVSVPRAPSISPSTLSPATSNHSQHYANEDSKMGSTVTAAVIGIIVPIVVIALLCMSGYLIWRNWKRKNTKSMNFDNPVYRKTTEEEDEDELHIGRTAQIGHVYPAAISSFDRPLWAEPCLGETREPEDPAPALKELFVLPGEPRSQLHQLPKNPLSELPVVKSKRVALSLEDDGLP
UniProt P17931, whole entry, looked up: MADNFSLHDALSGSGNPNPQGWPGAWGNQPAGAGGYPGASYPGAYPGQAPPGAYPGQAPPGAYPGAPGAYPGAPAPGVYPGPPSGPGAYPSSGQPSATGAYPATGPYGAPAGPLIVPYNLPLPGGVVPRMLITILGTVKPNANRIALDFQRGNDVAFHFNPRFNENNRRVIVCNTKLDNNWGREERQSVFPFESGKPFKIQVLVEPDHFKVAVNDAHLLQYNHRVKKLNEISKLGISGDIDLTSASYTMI
UniProt Q6ZUX7: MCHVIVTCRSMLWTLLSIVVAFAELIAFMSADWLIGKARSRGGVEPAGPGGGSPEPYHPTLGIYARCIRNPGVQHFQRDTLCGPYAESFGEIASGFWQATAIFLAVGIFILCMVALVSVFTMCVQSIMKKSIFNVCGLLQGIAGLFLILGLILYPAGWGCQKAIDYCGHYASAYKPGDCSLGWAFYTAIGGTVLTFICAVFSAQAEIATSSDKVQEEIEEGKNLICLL
UniProt Q15334: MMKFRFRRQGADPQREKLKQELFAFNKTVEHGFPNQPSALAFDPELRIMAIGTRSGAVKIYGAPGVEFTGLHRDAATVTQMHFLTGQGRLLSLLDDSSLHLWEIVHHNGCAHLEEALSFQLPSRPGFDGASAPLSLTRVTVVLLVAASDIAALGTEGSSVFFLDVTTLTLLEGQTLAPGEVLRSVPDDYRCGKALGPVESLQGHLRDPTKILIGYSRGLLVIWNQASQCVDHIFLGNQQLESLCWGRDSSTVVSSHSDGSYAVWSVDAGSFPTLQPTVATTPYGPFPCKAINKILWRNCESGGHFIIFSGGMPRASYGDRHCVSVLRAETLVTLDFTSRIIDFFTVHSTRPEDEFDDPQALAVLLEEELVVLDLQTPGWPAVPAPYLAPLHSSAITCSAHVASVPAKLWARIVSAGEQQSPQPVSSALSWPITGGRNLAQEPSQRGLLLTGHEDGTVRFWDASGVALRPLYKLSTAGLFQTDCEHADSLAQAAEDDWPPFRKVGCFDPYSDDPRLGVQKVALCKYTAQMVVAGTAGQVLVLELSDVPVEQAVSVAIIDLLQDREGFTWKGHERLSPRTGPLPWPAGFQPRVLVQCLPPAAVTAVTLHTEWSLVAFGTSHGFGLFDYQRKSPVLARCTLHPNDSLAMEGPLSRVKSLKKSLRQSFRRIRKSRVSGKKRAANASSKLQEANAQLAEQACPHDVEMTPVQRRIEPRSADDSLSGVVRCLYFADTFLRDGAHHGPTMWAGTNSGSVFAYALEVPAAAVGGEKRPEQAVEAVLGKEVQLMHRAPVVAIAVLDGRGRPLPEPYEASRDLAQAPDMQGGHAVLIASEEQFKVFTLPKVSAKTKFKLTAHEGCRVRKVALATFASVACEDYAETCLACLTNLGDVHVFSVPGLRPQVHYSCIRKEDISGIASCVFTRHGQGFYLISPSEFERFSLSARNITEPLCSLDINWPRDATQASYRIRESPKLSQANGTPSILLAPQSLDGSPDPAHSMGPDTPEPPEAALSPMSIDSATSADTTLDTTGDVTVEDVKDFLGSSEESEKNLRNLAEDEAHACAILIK
UniProt Q6PJG9: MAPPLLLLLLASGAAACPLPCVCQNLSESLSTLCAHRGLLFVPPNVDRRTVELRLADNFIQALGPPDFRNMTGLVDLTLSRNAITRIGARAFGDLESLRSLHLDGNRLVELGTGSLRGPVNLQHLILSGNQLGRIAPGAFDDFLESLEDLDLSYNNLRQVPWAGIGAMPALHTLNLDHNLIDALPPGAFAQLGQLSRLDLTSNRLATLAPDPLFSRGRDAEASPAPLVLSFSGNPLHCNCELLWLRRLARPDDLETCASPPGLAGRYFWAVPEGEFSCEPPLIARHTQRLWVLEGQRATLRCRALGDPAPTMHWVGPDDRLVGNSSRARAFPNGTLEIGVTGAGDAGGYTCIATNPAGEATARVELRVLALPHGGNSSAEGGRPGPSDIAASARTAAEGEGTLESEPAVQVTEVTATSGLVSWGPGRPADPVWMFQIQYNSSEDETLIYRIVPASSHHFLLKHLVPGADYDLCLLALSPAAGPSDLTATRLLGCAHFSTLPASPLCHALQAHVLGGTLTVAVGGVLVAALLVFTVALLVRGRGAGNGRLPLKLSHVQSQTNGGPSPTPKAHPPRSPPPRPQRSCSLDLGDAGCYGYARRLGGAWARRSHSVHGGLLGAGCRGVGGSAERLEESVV

How the values were obtained:
Test in all cases: log2 fold change, soluble protein after heating vs DMSO (PISA); higher = thermal stabilisation; K562 cells, 10 uM, 30 min; active = over 0.2 and 3.5 SD of the protein, either way, in both replicates (recomputed)
volasertib = compound: CC[C@@H]1C(=O)N(C)c2cnc(Nc3ccc(C(=O)N[C@H]4CC[C@H](N5CCN(CC6CC6)CC5)CC4)cc3OC)nc2N1C(C)C [volasertib]
Outline: (§1)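 Aliquots of K562 cells (2×10^6 cells/mL) treated with 10 μM compound for 30 min were heated for 3 min over 48°C-58°C. After pooling and extraction in PBS with 0.5% NP-40 at 4°C, soluble protein from a 21,000xg, 90 min spin was quantified by TMTpro 16plex LC-MS/MS with channel sums equalised. Thermal stability is expressed against control samples, from duplicates, as a log2 fold change.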

epoxomicin = compound: CC[C@H](C)[C@@H](C(=O)N[C@@H]([C@@H](C)O)C(=O)N[C@@H](CC(C)C)C(=O)[C@]1(CO1)C)NC(=O)[C@H]([C@@H](C)CC)N(C)C(=O)C [epoxomicin]
Outline: as §1

[1] = compound: CCn1cc(-c2ccnc3[nH]c(-c4cccc(CN(C)C)c4)cc23)c(-c2ccc(NC(=O)N(C)C)cc2)n1
Outline: as §1

[2] = compound: CN(C)CC(=O)Nc1ccc2[nH]c(=O)c3ccccc3c2c1
Outline: as §1

rosiglitazone = compound: CN(CCOC1=CC=C(C=C1)C[C@H]2C(=O)NC(=O)S2)C3=CC=CC=N3 (racemic) [rosiglitazone]
Outline: as §1

[3] = compound: CN1C2=C(C3=C1C(=O)N(N=C3)CC4=CC(=CC=C4)N)SC(=C2)S(=O)C
Outline: as §1

[4] = compound: CN1CCC(CNc2ccc3ncc(-c4cccc(OC(F)(F)F)c4)n3n2)CC1
Outline: as §1

saracatinib = compound: CN1CCN(CCOc2cc(OC3CCOCC3)c3c(Nc4c(Cl)ccc5c4OCO5)ncnc3c2)CC1 [saracatinib]
Outline: as §1

sotrastaurin = compound: CN1CCN(c2nc(C3=C(c4c[nH]c5ccccc45)C(=O)NC3=O)c3ccccc3n2)CC1 [sotrastaurin]
Outline: as §1

alvocidib = compound: CN1CC[C@H](c2c(O)cc(O)c3c(=O)cc(-c4ccccc4Cl)oc23)[C@H](O)C1 [alvocidib]
Outline: as §1

Tubastatin A = compound: CN1CCc2c(c3ccccc3n2Cc2ccc(C(=O)NO)cc2)C1 [Tubastatin A]
Outline: as §1

defactinib = compound: CNC(=O)c1ccc(Nc2ncc(C(F)(F)F)c(NCc3nccnc3N(C)S(C)(=O)=O)n2)cc1 [defactinib]
Outline: as §1

[5] = compound: CNc1nc(-c2ccc3c(N)n[nH]c3c2)cc(N2C[C@@H](C(=O)NC3CCCCC3)CC[C@H]2C)n1
Outline: as §1

[6] = compound: COC(=O)[C@H](CCSC)NC(=O)C1=C(C=C(C=C1)NC[C@H](CS)N)C2=CC=CC=C2
Outline: as §1

[7] = compound: CC[C@@H]1C(=O)N(C)c2cnc(Nc3ccc(C(=O)NC4CCN(C)CC4)cc3OC)nc2N1C1CCCC1
Outline: as §1

rucaparib = compound: CNCc1ccc(-c2[nH]c3cc(F)cc4c3c2CCNC4=O)cc1 [rucaparib]
Outline: as §1

encorafenib = compound: COC(=O)N[C@@H](C)CNc1nccc(-c2cn(C(C)C)nc2-c2cc(Cl)cc(NS(C)(=O)=O)c2F)n1 [encorafenib]
Outline: as §1

[8] = compound: CC[C@H](C)N1C=C(C2=C(C=C(C=C21)C3=CN=C(C=C3)N4CCNCC4)C(=O)NCC5=C(C=C(NC5=O)C)C)C
Outline: as §1

[9] = compound: CCn1c(C(=O)N(C2CC2)C2CC2)cc2c3c(ncn3C)c(Nc3cc(C)n(C)n3)nc21
Outline: as §1

[10] = compound: CNC(=O)C1=CC=CC=C1NC2=NC(=NC=C2Cl)NC3=C(C=C(C=C3)N4CCOCC4)OC
Outline: as §1

| Target | log2 fold change (volasertib) | log2 fold change (epoxomicin) | log2 fold change [1] | log2 fold change [2] | log2 fold change (rosiglitazone) | log2 fold change [3] | log2 fold change [4] | log2 fold change (saracatinib) | log2 fold change (sotrastaurin) | log2 fold change (alvocidib) | log2 fold change (Tubastatin A) | log2 fold change (defactinib) | log2 fold change [5] | log2 fold change [6] | log2 fold change [7] | log2 fold change (rucaparib) | log2 fold change (encorafenib) | log2 fold change [8] | log2 fold change [9] | log2 fold change [10] |
| --- | --- | --- | --- | --- | --- | --- | --- | --- | --- | --- | --- | --- | --- | --- | --- | --- | --- | --- | --- | --- |
| LAS1L (UniProt Q9Y4W2) | inactive: -0.018 | inactive: -0.065 | inactive: -0.002 | inactive: -0.056 | inactive: 0.09 | inactive: 0.378 | inactive: 0.004 | inactive: -0.157 | inactive: 0.265 | inactive: 0.072 | inactive: 0.084 | inactive: -0.246 | inactive: -0.11 | inactive: 0.038 | – | – | – | – | – | – |
| LMO4 (UniProt P61968) | inactive: 0.032 | – | inactive: 0.073 | – | inactive: -0.04 | inactive: -0.004 | inactive: 0.003 | inactive: -0.051 | – | inactive: 0.033 | inactive: -0.099 | – | inactive: -0.089 | – | inactive: -0.029 | inactive: 0.015 | inactive: -0.187 | – | – | – |
| LRP5 (UniProt O75197) | inactive: -0.099 | inactive: 0.048 | inactive: 0.048 | inactive: -0.08 | – | inactive: 0.06 | inactive: 0.045 | inactive: -0.1 | – | inactive: 0.136 | inactive: -0.172 | inactive: 0.08 | inactive: -0.107 | inactive: -0.023 | – | – | – | inactive: 0.005 | – | – |
| LACRT (UniProt Q9GZZ8) | – | inactive: 0.346 | – | inactive: -0.149 | inactive: -0.148 | – | – | – | inactive: 0.095 | inactive: 0.08 | – | inactive: 0.028 | – | inactive: 0.253 | inactive: -0.072 | inactive: 0.053 | inactive: -0.116 | inactive: 1.13 | – | – |
| LIG3 (UniProt P49916) | inactive: 0.012 | – | inactive: -0.134 | – | – | inactive: -0.037 | inactive: -0.175 | inactive: -0.438 | inactive: -0.091 | inactive: -0.287 | – | – | inactive: 0 | – | – | – | – | inactive: -0.197 | inactive: -0.393 | inactive: -0.075 |
| LGALS8 isoform 2 (UniProt O00214) | – | inactive: -0.05 | inactive: -0.121 | inactive: 0.067 | – | inactive: 0.328 | active: 0.93 | inactive: -0.359 | inactive: -0.323 | – | inactive: 0.07 | inactive: 0.104 | inactive: 0.141 | inactive: -0.051 | inactive: 0.19 | inactive: 0.306 | inactive: 0.218 | – | – | inactive: -0.244 |
| LEG1 (UniProt Q6P5S2) | inactive: -0.763 | – | inactive: -0.085 | inactive: 0.19 | inactive: -0.001 | inactive: -0.229 | inactive: -0.042 | inactive: -0.223 | inactive: -0.107 | inactive: 0.103 | – | inactive: -0.004 | inactive: -0.003 | inactive: -0.071 | – | – | – | inactive: 0.079 | – | – |
| LRP8 (UniProt E9PP15) | inactive: 0.031 | inactive: 0 | – | inactive: -0.036 | inactive: -0.014 | inactive: -0.126 | – | inactive: 0.019 | inactive: 0.214 | inactive: 0.021 | inactive: -0.057 | inactive: -0.047 | inactive: -0.025 | inactive: -0.151 | inactive: -0.154 | inactive: 0.063 | inactive: -0.088 | – | inactive: -0.041 | inactive: -0.145 |
| LGALS3 (UniProt P17931) | – | – | inactive: -0.192 | – | inactive: 0.148 | inactive: 0.207 | inactive: 0.043 | inactive: -0.017 | – | – | – | – | inactive: -0.029 | – | inactive: 0.197 | inactive: -0.251 | inactive: -0.343 | inactive: 0.096 | – | – |
| LHFPL2 (UniProt Q6ZUX7) | inactive: 0.084 | inactive: 0.084 | – | inactive: 0.38 | – | – | – | – | – | – | inactive: -0.002 | inactive: -0.185 | – | inactive: -0.446 | – | – | – | – | inactive: 0.086 | inactive: 0.031 |
| LLGL1 (UniProt Q15334) | inactive: 0.009 | inactive: -0.048 | – | – | – | inactive: -0.073 | – | inactive: 0.016 | inactive: 0.012 | inactive: 0.044 | inactive: 0.023 | – | inactive: 0.063 | – | – | – | – | – | inactive: -0.023 | inactive: -0.004 |
| LRFN4 (UniProt Q6PJG9) | inactive: -0.103 | inactive: 0.034 | inactive: 0.003 | – | inactive: -0.091 | inactive: -0.075 | inactive: 0.176 | inactive: 0.102 | inactive: 0.083 | inactive: -0.157 | inactive: 0.103 | – | inactive: -0.007 | – | – | – | – | – | inactive: 0.123 | inactive: -0.026 |

Only log2 fold change (volasertib), log2 fold change [6] and log2 fold change [9], for some of the entries so far:
Target | log2 fold change (volasertib) | log2 fold change [6] | log2 fold change [9]
LLGL1 (UniProt Q15334) | inactive: 0.009 | – | inactive: -0.023
LRFN4 (UniProt Q6PJG9) | inactive: -0.103 | – | inactive: 0.123
